Experimental data from PubChem BioAssay AID504467 (National Center for Advancing Translational Sciences (NCATS), 2011).
Out of some 330,000 compounds screened, about 7,700 (2.3%) were called active. This list was built around the results that the source calls inconclusive (neither active nor inactive); the mix of calls is not that of the screen. Calls follow the shape of the dose curve; as a rule, active = well fitted inhibition curve with a large enough effect; inconclusive = small, poorly fitted or top-dose-only effect, or effect the other way; inactive = flat fitted curve, though single readings scatter. A potency beside an inconclusive call is a rough fit, not a confirmed value.

Experiment: qHTS screen for small molecules that inhibit ELG1-dependent DNA repair in human embryonic kidney (HEK293T) cells expressing luciferase-tagged ELG1; also: nearly all actives have a fitted effect of over 55% in size
Conditions: HEK293T ELG1-luciferase reporter, luminescence, 16 h, DNA damage induced by 5-fluorouridine; activity change, negative = inhibition: at 46.1 µM (top of the series)
How it was run: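 Step one: seed 2,000 cells per well. Step two: pin-transfer compound or DMSO alongside 5-fluorouridine. Step three: incubate 16 hr, 37 °C, 5% CO2. Step four: add ONE-Glo, wait 30 min, read luminescence.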
% is scaled to controls: 0 for no effect and ±100 for the full control effect; potency is read from the fitted curve at half-maximal effect.

| SMILES | Potency | activity change, negative = inhibition |
| --- | --- | --- |
| COc1cccc2cc(-c3nnc(SCC(=O)NCc4ccccc4)n3C)oc12 | inconclusive: 13 µM [inhibitor, partial curve, poor fit] | – |
| COc1ccc(OCCC(=O)OCC(=O)NCc2ccccc2OC)cc1 | – | inactive: 3.55% |
| Cn1nc(C(=O)Nc2ccc3c(c2)OCCO3)c2ccccc2c1=O | inconclusive: 14.6 µM [activator, partial curve] | – |
| Fc1cccc(Cl)c1Cn1nnc2c(NCc3ccncc3)ncnc21 | inconclusive: 23.1 µM [inhibitor, partial curve, poor fit] | – |
| CN(Cc1ccccc1)C(=O)C1CCN(S(=O)(=O)c2cccc3nonc23)CC1 | – | inactive: -14% |
| CCCn1cnc2cc(NC(=O)c3ccco3)ccc21 | inconclusive: 2.31 µM [activator, partial curve] | – |
| CN(CC(=O)Nc1ccc(Cl)c(C(F)(F)F)c1)C(=O)c1cccc2cccnc12 | – | inactive: -19.3% |
| Cc1cc(C(=O)NN=Cc2ccc(OC(=O)c3ccco3)cc2)c(C)o1 | inconclusive: 20.6 µM [activator, partial curve] | – |
| C=CCn1cc(C(=O)NCCCOC)c(=O)c2cc(S(=O)(=O)N(CC)CC)ccc21 | inconclusive: 23.1 µM [inhibitor, partial curve, poor fit] | – |
| Cc1nc2[nH]c(=S)n(C)c(=O)c2nc1C | – | inactive: 9.93% |
| Cn1nnnc1SCC(=O)Nc1ccccc1C(N)=O | – | inactive: 2.3% |
| O=C(Oc1ccc2[nH]cc(CCN3C(=O)c4ccccc4C3=O)c2c1)c1ccco1 | inconclusive: 20.6 µM [activator, single point] | – |
| COc1ccccc1N1CCN(CC(O)c2ccc3cc[nH]c3c2)CC1 (stereo unspecified) | – | inactive: -4.57% |
| Cc1ccc(NC(=O)CCc2ccc(C)o2)cc1 | – | inactive: 6.18% |
| Cc1ccc(NC(=O)CN(C)C(=O)c2cccc(S(=O)(=O)N3CCc4ccccc43)c2)cc1 | – | inactive: -29.4% |
| CCc1ccccc1NC(=S)N(CCN(C)C)C(C)c1ccccn1 (stereo unspecified) | – | inactive: 3.65% |
| Cc1ccc(CN(c2ccc(C(=O)N3CCc4ccccc4C3)cc2)S(C)(=O)=O)cc1 | active: 16.4 µM | – |
| CC(=O)c1cccc(NC(=O)COC(=O)c2ccccc2C)c1 | inconclusive: 9.2 µM [activator, partial curve] | – |
| Fc1ccc(COc2ccc(-c3nnco3)cc2)c(Cl)c1 | inconclusive: 20.6 µM [activator, partial curve] | – |
| CCc1cc2c(CN3CCN(Cc4ccccc4)CC3)cc(=O)oc2cc1O | inconclusive: 32.6 µM [inhibitor, partial curve, poor fit] | – |
| Cc1cc(C)c(NC(=O)CSc2nnc(CNC(=O)c3ccco3)o2)c(C)c1 | – | inactive: 16.3% |
| COc1ccc([C@@]2(C(C)C)ON(c3ccccc3C(F)(F)F)C2=O)cc1 | inconclusive: 18.3 µM [inhibitor, single point] | – |
| COc1ccc(C(=O)Cc2nnc(C)s2)c(OC)c1 | inconclusive: 18.4 µM [activator, partial curve] | – |
| Cn1nc(-c2ccccc2)c(-c2nc(-c3ccccc3Cl)no2)c1Cl | inconclusive: 23.1 µM [inhibitor, single point] | – |

An excerpt of these results, tab-delimited.
SMILES	Potency	activity change, negative = inhibition
COc1ccccc1N1CCN(CC(O)c2ccc3cc[nH]c3c2)CC1 (stereo unspecified)	–	inactive: -4.57%
Cc1ccc(NC(=O)CCc2ccc(C)o2)cc1	–	inactive: 6.18%
Cc1ccc(NC(=O)CN(C)C(=O)c2cccc(S(=O)(=O)N3CCc4ccccc43)c2)cc1	–	inactive: -29.4%

Additional entries

| SMILES | Potency | activity change, negative = inhibition |
| --- | --- | --- |
| COc1ccc(C)cc1NC(=O)Nc1ccc(Br)cn1 | – | inactive: 0.0516% |
| N#Cc1ccccc1S(=O)(=O)N1CCN(C(=O)[C@H](Cc2ccccc2)NC(=O)c2ccco2)CC1 | – | inactive: -2.66% |
| CCOC(=O)c1ccc(-n2cccc2/C=C2\NC(=O)NC2=O)cc1 | inconclusive: 2.91 µM [inhibitor, single point] | – |
| C/C(N)=C(/C#N)C(=O)CSc1nnnn1-c1ccccc1 | inconclusive: 18.4 µM [activator, partial curve, poor fit] | – |
| NC(=O)c1nsc(C(=O)N(c2cccc(F)c2)C(C(=O)NCC2CCCO2)c2c[nH]c3ccccc23)c1N (stereo unspecified) | – | inactive: -6.93% |
| CC(C)[C@H](N)c1nnc(SCC(=O)c2ccc(Cl)cc2)o1 | – | inactive: 24.5% |
| COc1cc(/C=N/NC(=O)c2ccncc2)ccc1OC(=O)c1cccc(Br)c1 | – | inactive: 0.471% |
| CCOC(=O)C1(Cc2ccccc2)CCN(Cc2ccc(COC)o2)CC1 | – | inactive: -5.59% |
| Cc1ccc(CN2CC(C(=O)Nc3cc(C)ccn3)CC2=O)cc1 (stereo unspecified) | inconclusive: 9.2 µM [activator, partial curve] | – |
| Cc1ccccc1OCCNc1cc(N2CCN(CCO)CC2)ccc1[N+](=O)[O-] | – | inactive: -0.605% |
| Cc1ccc2nc3nc(NCC4CCCO4)c(C(=O)NC4CCCC4)cc3c(=O)n2c1 (stereo unspecified) | inconclusive: 29.1 µM [activator, partial curve, poor fit] | – |
| O=C(c1ccco1)N1CCN(C(=O)c2ccc(CS(=O)c3ccc(Cl)cc3)o2)CC1 (stereo unspecified) | – | inactive: 5.41% |
| COCCn1c(CN2CCN(C(=O)c3ccco3)CC2)nc2c1c(=O)n(C)c(=O)n2C | – | inactive: 8.55% |
| CCCc1nn(-c2cc(Cl)ccc2OC)c2c1C(=O)CC(C)(C)C2 | inconclusive: 18.4 µM [inhibitor, single point] | – |
| C=CCn1c(SCc2cccc(F)c2)nc2cc(C(=O)N3CCC(C(N)=O)CC3)ccc2c1=O | inconclusive: 29.1 µM [inhibitor, single point] | – |
| CCc1nnc(NC(=O)CSc2nc(C)cc(C)c2C#N)s1 | inconclusive: 2.59 µM [activator, partial curve] | – |
| C[C@@H]1CN([C@@H](C)CO)C(=O)c2cccc(NC(=O)Nc3ccc4c(c3)OCO4)c2O[C@H]1CN(C)S(=O)(=O)c1cn(C)cn1 | inconclusive: 8.2 µM [inhibitor, partial curve, poor fit] | – |
| COc1ccc(Nc2nc3ccccc3nc2NS(=O)(=O)c2cccs2)c(OC)c1 | inconclusive: 14.6 µM [inhibitor, partial curve] | – |
| CCSc1nnc(NC(=O)CSc2nc3c(c(=O)n2C)SC(C)C3)s1 (stereo unspecified) | inconclusive: 16.4 µM [inhibitor, single point] | – |
| Cc1ccc(C)c(NC(=O)CSc2n[nH]c(-c3ccccn3)n2)c1 | inconclusive: 4.11 µM [inhibitor, partial curve] | – |
| COC(=O)[C@H]1C[C@@H]1[C@H](NC(=O)[C@H]1C[C@@H]1[C@H](NC(=O)OCc1ccccc1)c1ccccc1)c1ccccc1 | inconclusive: 8.2 µM [inhibitor, partial curve, poor fit] | – |
| CCc1ccc2nc(N3CCN(C)CC3)c(C#N)cc2c1 | inconclusive: 18.4 µM [activator, single point] | – |
| CCOc1nc(OCC)c2cnn(C)c2n1 | inconclusive: 18.3 µM [inhibitor, single point] | – |
| CCN(CC)CC#CCC(O)(c1ccccc1)C1CCCC1 (stereo unspecified) | inconclusive: 4.11 µM [inhibitor, single point] | – |

| SMILES | Potency | activity change, negative = inhibition |
| --- | --- | --- |
| NS(=O)(=O)c1ccc(NC(=O)COC(=O)C23CC4CC(CC(C4)C2)C3)cc1 | – | inactive: -0.248% |
| Cn1c(SCC(=O)NC2CCCCC2)nnc1-c1ccccc1O | – | inactive: 12.1% |
| Cc1cnc(NC(=O)c2cc3c(C)nn(Cc4ccccc4Cl)c3s2)s1 | – | inactive: -0.118% |
| CCOC(=O)C1CCN(C(=O)Cc2ccc(C)cc2)CC1 | inconclusive: 20.6 µM [activator, partial curve, poor fit] | – |
| CCC(c1nnnn1Cc1ccccc1)N1CCN(c2ccc(OC)cc2)CC1 (stereo unspecified) | inconclusive: 23.1 µM [inhibitor, single point] | – |
| CC(C)=CC(=O)N1CCCc2ccccc21 | – | inactive: 6.07% |
| CC1CN(C(=O)c2ccccc2)C(=Nc2cccc(S(=O)(=O)N(C)C)c2)S1 (stereo unspecified) | – | inactive: 8.59% |
| Brc1ccccc1-c1nc(-c2ccccc2)no1 | inconclusive: 2.59 µM [activator, partial curve] | – |
| Cc1cccc(C)c1NCc1nnc(SCC(=O)Nc2nc(-c3ccccc3)cs2)n1-c1ccccc1 | inconclusive: 32.6 µM [activator, partial curve, poor fit] | – |
| O=[N+]([O-])c1cc(Cc2ccccc2)cc(C=Nc2ccc(N3CCOCC3)cc2)c1O | – | inactive: -7.26% |
| CCOc1ccc2oc(C(=O)N(Cc3nnc(-c4ccccc4Cl)o3)C3CC3)c(C)c2c1 | active: 9.2 µM | – |
| O=C(NCCNC(=O)c1cc(OCC(F)(F)F)ccc1OCC(F)(F)F)Nc1ccccc1 | inconclusive: 22.4 µM [inhibitor, single point] | – |
| Cc1noc(C)c1C(=O)Nc1ccc(Cl)cc1C(F)(F)F | inconclusive: 35.5 µM [activator, partial curve, poor fit] | – |
| O=C1N(Cc2cccnc2)C[C@@H]2C[C@@H](c3ccc4nsnc4c3)N3CCC[C@@]123 | – | inactive: 4.91% |
| COc1ccccc1N(C)S(=O)(=O)c1ccc(C(=O)NCc2ccc3c(c2)OCO3)cc1 | inconclusive: 29.1 µM [inhibitor, single point] | – |
| Cn1nc(C(C)(C)C)cc1C(=O)NCc1ccc2c(c1)OCO2 | inconclusive: 0.82 µM [inhibitor, full curve] | – |
| Cc1ccc(C)c(Oc2ncnc(N)c2[N+](=O)[O-])c1 | inconclusive: 16.4 µM [activator, partial curve, poor fit] | – |
| CS(=O)(=O)c1sc2nc(-c3cccs3)cc(-c3ccccc3)c2c1N | – | inactive: -20.3% |
| Cc1cc(NC(=O)C2CCCN2C(=O)Nc2cccc(Cl)c2)ccc1-n1cnnn1 (stereo unspecified) | – | inactive: -0.741% |
| COc1cccc(NC(=O)/C=C/c2ccco2)c1 | inconclusive: 18.3 µM [activator, partial curve] | – |
| CN1C(=O)/C(=C2\SC(N3CCCCCC3)=NC2=O)c2ccccc21 | inconclusive: 2.59 µM [activator, full curve] | – |
| Cc1nc(NC(C)C)c2cnn(CCc3ccccc3)c2n1 | inconclusive: 9.2 µM [activator, partial curve] | – |
| COc1ccc(C(=O)Nc2cc(Cl)ccc2OC(=O)c2ccc(OC)cc2)cc1 | inconclusive: 8.2 µM [activator, partial curve] | – |

Entries of single compounds from above. Order of values: Potency	activity change, negative = inhibition
`Cc1ccc(C)c(NC(=O)CSc2n[nH]c(-c3ccccn3)n2)c1` in the list: inconclusive: 4.11 µM [inhibitor, partial curve]	–
`Cc1cc(C)c(NC(=O)CSc2nnc(CNC(=O)c3ccco3)o2)c(C)c1` in the list: –	inactive: 16.3%
